Taken from: PubChem BioAssay AID743454 (Peter MacCallum Cancer Centre, 2014)

Screen: 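Genes whose loss kills vorinostat-resistant colon cancer cells under vorinostat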 (primary screen)
System: human HCT116-VR colon cancer cells, selected for vorinostat resistance
Reagents: siRNA pool against human genes, 40 nM siRNA pool
Duration: vorinostat for 24 h, read-out about 72 h after transfection
Conditions: vorinostat at 2.5 µM final
Read-out: 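Two measures, CellTiter-Fluor viability and luminescent caspase 3/7 activity, each as fold change against same-plate mock wells, mean of duplicates, then screen-wide robust z-score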
Reading the numbers: viability robust z-score: higher = more viable cells than screen typical; caspase robust z-score: higher = more caspase 3/7 activity than screen typical
Call rule: 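a knock-down is a hit when classed RV1 or RV2 for lowered viability, or CA1 or CA2 for caspase activation; those lethal without drug were dropped; hits were retested singly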
This is a random part of about 18,000 deposited reagents. Of all reagents, 450 (2.5%) got an active call. 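Single biological run; no consistent viability z cut-off exists, so the class columns, not z-scores, define the calls.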 Entries without a mark were called inactive. The numbers tell different reagents against one gene apart.

{"gene knocked down": "BBS2", "pool no.": 1, "viability hit class": "no change", "caspase hit class": "no change", "viability robust z-score": 0.3, "caspase robust z-score": -0.52}
{"gene knocked down": "MFAP3", "pool no.": 1, "viability hit class": "no change", "caspase hit class": "no change", "viability robust z-score": 0.08, "caspase robust z-score": -0.52}
{"gene knocked down": "AK4", "pool no.": 1, "viability hit class": "no change", "caspase hit class": "no change", "viability robust z-score": 0.8, "caspase robust z-score": -0.12}
{"gene knocked down": "AK4", "pool no.": 2, "viability hit class": "no change", "caspase hit class": "no change", "viability robust z-score": 0.02, "caspase robust z-score": -0.21}
{"gene knocked down": "LMO1", "pool no.": 1, "viability hit class": "no change", "caspase hit class": "no change", "viability robust z-score": -0.4, "caspase robust z-score": 0.06}
{"gene knocked down": "CZIB", "pool no.": 1, "viability hit class": "no change", "caspase hit class": "no change", "viability robust z-score": 0.45, "caspase robust z-score": -1.04}
{"gene knocked down": "LURAP1", "pool no.": 1, "viability hit class": "no change", "caspase hit class": "no change", "viability robust z-score": 0.52, "caspase robust z-score": 0.29}
{"gene knocked down": "SIGIRR", "pool no.": 1, "viability hit class": "no change", "caspase hit class": "no change", "viability robust z-score": -0.27, "caspase robust z-score": 1.29}
{"gene knocked down": "SLC9B2", "pool no.": 1, "viability hit class": "no change", "caspase hit class": "no change", "viability robust z-score": -0.37, "caspase robust z-score": 1.26}
{"gene knocked down": "NAMPT", "pool no.": 1, "viability hit class": "no change", "caspase hit class": "no change", "viability robust z-score": -0.14, "caspase robust z-score": 1.99}

Limited to “caspase robust z-score”, for 3 of the entries above:
AK4 #2 = -0.21
LMO1 = 0.06
CZIB = -1.04

More reagents follow.
{"gene knocked down": "UBE4B", "pool no.": 1, "viability hit class": "no change", "caspase hit class": "no change", "viability robust z-score": -0.24, "caspase robust z-score": 0.06}
{"gene knocked down": "TMEM54", "pool no.": 1, "viability hit class": "no change", "caspase hit class": "no change", "viability robust z-score": -0.32, "caspase robust z-score": 0.54}
{"gene knocked down": "TMPRSS11B", "pool no.": 1, "viability hit class": "no change", "caspase hit class": "no change", "viability robust z-score": 0.24, "caspase robust z-score": 1.28}
{"gene knocked down": "TPM2", "pool no.": 1, "viability hit class": "no change", "caspase hit class": "no change", "viability robust z-score": -0.04, "caspase robust z-score": -0.9}
{"gene knocked down": "SSU72", "pool no.": 1, "viability hit class": "no change", "caspase hit class": "no change", "viability robust z-score": -0.1, "caspase robust z-score": 0.04}
{"gene knocked down": "DCAF4L2", "pool no.": 1, "viability hit class": "no change", "caspase hit class": "no change", "viability robust z-score": 1.69, "caspase robust z-score": -0.21}
{"gene knocked down": "FRG2B", "pool no.": 1, "viability hit class": "no change", "caspase hit class": "no change", "viability robust z-score": 0.38, "caspase robust z-score": -1.08}
{"gene knocked down": "CPLX3", "pool no.": 1, "viability hit class": "no change", "caspase hit class": "no change", "viability robust z-score": 0.03, "caspase robust z-score": -0.2}
{"gene knocked down": "PF4V1", "pool no.": 1, "viability hit class": "no change", "caspase hit class": "no change", "viability robust z-score": 0.76, "caspase robust z-score": -0.04}
{"gene knocked down": "PCLAF", "pool no.": 1, "viability hit class": "no change", "caspase hit class": "no change", "viability robust z-score": -0.78, "caspase robust z-score": 1.29}
{"gene knocked down": "USF3", "pool no.": 1, "viability hit class": "no change", "caspase hit class": "no change", "viability robust z-score": -0.91, "caspase robust z-score": -0.16}
